Out of some 31,000 sequences screened, about 1,400 (4.5%) were called active.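 How the source made its calls: active means median seed-adjusted z-score above 1 or below -1; inactive means the rest.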 The list shows a part of the results.

This note sets out measurements from PubChem BioAssay AID1347426 (Functional Genomics Laboratory (NCATS/FGL), 2020).

A short description of the test: Novel Modifiers of Survival Motor Neuron (SMN) Protein: Gene Identification via Genome-wide siRNA Screen.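 Further: luminescence tracks full-length SMN protein made from the SMN2 reporter.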 The following applies: HEK293T SMN2-luciferase reporter, siRNA knockdown, 72 h; actives lie on both sides. An outline of the steps:
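HEK293T cells stably carrying an SMN2 promoter/splicing cassette–luciferase reporter were reverse-transfected with 1 pmol siRNA per well (druggable-genome library, 3 siRNAs per gene) and grown 72 h at 37 °C. Luminescence, normalized to negative-control siRNA and log10-transformed, was scored as MAD.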
Background: Reporter assays use an easily measured gene product as a stand-in for the process of interest.
As for CCAUCUACCUUUGCCGACATT against PFKFB1, the median seed-adjusted z-score was inactive: -0.561.
For the sequence GUUCCUACCCAUAACUAAATT against SLC26A5, the median seed-adjusted z-score was inactive: -0.252.
GAACCACCAUUGGACCUAUTT against DNPEP: the median seed-adjusted z-score is inactive: -0.293.
GGACUUAUUCUGCAUAGGATT against ZNF471: the median seed-adjusted z-score is inactive: 0.364.
Turning to GGAGCAUUUUGAUAAGCCUTT against SOX3, the median seed-adjusted z-score is inactive: 0.32.
Regarding CAUUCGAAACCUUGUCUUATT against PTPRR, the median seed-adjusted z-score is inactive: 0.502.
As for CCACUACGCUCGCAACUUATT against GAL3ST4, the figure is inactive: 0.248.
GCAACCCUCAUUGAAGAUATT against TRPC4AP: the median seed-adjusted z-score is inactive: 0.106.
As for GAAUGUUCAAGAUCGAUUUTT against RANBP2, the figure is active: 1.53; as for CGAGCUACACUGUCCACUUTT against CSGLCA-T, inactive: 0.146.
Regarding ACUUCAUCGAGGACCCAAATT against CACNA2D2, the median seed-adjusted z-score is inactive: -0.702.
Regarding CCAUGAACUUUGAUGUGAUTT against PABPC4, the median seed-adjusted z-score was inactive: -0.42.
For GGAAGUCUGCAAUUGAACATT against RAPGEF5, the median seed-adjusted z-score is inactive: 0.529.
For the sequence AGAUCAACGUGAUUGAGGATT against CENTB1, the median seed-adjusted z-score was inactive: -0.239.
As for CGACCACGUUGAAACGCAATT against SCN2A, the figure is inactive: 0; as for AAACAACUCGAUUUCGAAATT against PCDHB13, inactive: -0.293.
As for GCAGAUUACGCAUUUACAATT against GTPBP10, the median seed-adjusted z-score was inactive: 0.
As for CCAGUGUCUUUUAACUUAATT against GARS, the median seed-adjusted z-score was inactive: 0.138.
For CGAUGGGUGAGACUGGAUATT against CENTD2, the median seed-adjusted z-score is inactive: -0.305.
The figure for GGAUUAGCCUCAACGAUGUTT against PARP4 is inactive: -0.226.
Regarding GGUGGAACUUUUAAUCAAATT against GABPB2, the median seed-adjusted z-score was inactive: 0.441.
For the sequence GGCACCAACUUCACAUUCATT against SUSD2, the median seed-adjusted z-score was inactive: 0.422.
Take GAAAGAUGCAAAAGACAAATT against SFPQ: the median seed-adjusted z-score was active: -1.15.
For CAUGUUCUUUGAGAAGCGATT against PLSCR3, the median seed-adjusted z-score is inactive: 0.
With CGAAGUGAGUGAUAACAGUTT against RNF157, the median seed-adjusted z-score is inactive: 0.0197.
Take GGUGUCCAAUAAGACCGAATT against SERPINC1: the median seed-adjusted z-score was inactive: -0.0822.
Regarding GGGUGGAGGUUAUCCUGAATT against AXL, the median seed-adjusted z-score was inactive: -0.603.
Consider CCUUUACUGUUUAUGGACATT against ZNF30, for which the median seed-adjusted z-score was inactive: -0.0208.
As to GCAUUUUGCUGCGAAGUAUTT against PIK3AP1, the median seed-adjusted z-score is inactive: 0.0678.
As for CAAACCUACCUAAUCAUAUTT against GDPD2, the median seed-adjusted z-score was inactive: -0.0868.
With GAACCGGAAGAUCAUAUUATT against SPAG6, the median seed-adjusted z-score was inactive: -0.439.
Take GGAACAGACAGUGACCAAUTT against ZNF335: the median seed-adjusted z-score was inactive: -0.305.
Consider GUGCUCUUCUGAGAUCUAATT against SLC25A40, for which the median seed-adjusted z-score is inactive: 0.414.
GAAUGAAUCAAAUCUUUUUTT against EBPL: the median seed-adjusted z-score is inactive: -0.113.
As for GACCAGACAUUCACACGAATT against ZNF483, the figure is inactive: 0; as for GAACGUGAAGAUCAACUUUTT against SCN8A, inactive: 0.
With GGCUAUGACUGGAGCACGATT against PVRL2, the median seed-adjusted z-score was inactive: -0.367.
Take CUACCGCAAAUACUUCUAUTT against SIPA1: the median seed-adjusted z-score was inactive: -0.0872.
As for CAACAAGUUCUAUACUAAATT against MADD, the median seed-adjusted z-score was inactive: 0.363.
Turning to GCAUUAUGAUUGCAUGGAATT against OSGEPL1, the median seed-adjusted z-score was inactive: -0.708.
The figure for CAGCAGAGCUUCUUAGCAATT against INPP1 is inactive: -0.047; for GUAUCCAGGUUGCAAAUAUTT against BIRC8 it is inactive: 0.0184.
As to GGAAAGUCUUUACCCUCAATT against ZNF41, the median seed-adjusted z-score is inactive: 0.342.
Take GAACUGCAAAGACCUGUUUTT against SSU72: the median seed-adjusted z-score is active: -1.64.
As to GGGAUCCUCCUUAUCCUAATT against FXYD6, the median seed-adjusted z-score is inactive: -0.214.
Take CCAUCGAAAUUGUGAAGCUTT against ATP10D: the median seed-adjusted z-score is inactive: -0.35.
Turning to CAGGUGAUGUGAUAUCAUATT against VGLL2, the median seed-adjusted z-score is inactive: -0.0234.
As for GGACUUGAACAUCAGCUAUTT against FAM62A, the figure is inactive: -0.34; as for GAUGAUUCCCUGUACAUCATT against FSTL4, inactive: 0.429.
The figure for GAGCUGAGCUUCAACGUGATT against MYO1F is inactive: 0.103; for GGCUUAUAUAAAGAUCUAUTT against SPG3A it is inactive: 0.203; for CGCCCUGCAUGUAUACAAUTT against PDPR it is inactive: -0.0653.
With GGAACAACAGAGACAAGAATT against ADSS, the median seed-adjusted z-score is inactive: -0.272.
With CGAGAUGAUUUGGUCCAGATT against TFCP2L1, the median seed-adjusted z-score is inactive: -0.246.
Take GCAUCGAUUUUUCACCUGUTT against HTR4: the median seed-adjusted z-score was inactive: 0.444.
Turning to GAAUGAGUAUGUUCAUGGATT against VRK3, the median seed-adjusted z-score was inactive: -0.526.
As for GAUUGCAUAUUACAAACGATT against GIN1, the figure is inactive: -0.0585.
For GGGUCAUUCUGAUCACCGATT against KLK3, the median seed-adjusted z-score is inactive: 0.0191.
For GGUUCACGGUUCAAAAUCATT against SLC25A24, the median seed-adjusted z-score was inactive: -0.0384.
As for GCUAUUCCAUCUACCGAUATT against IL20RA, the figure is inactive: -0.646; as for CCGUAAUAGGUGUCGGAGATT against GPR116, inactive: 0; as for GCUCAUGACUUACUCCCAUTT against GNB1, inactive: -0.166.
In the case of CCAUAAUUUUGUUAUGGUATT against TXNDC12, the median seed-adjusted z-score is inactive: -0.154.
In the case of GGACUUUGACAAGAACAGUTT against CYP1A2, the median seed-adjusted z-score was inactive: 0.
For the sequence GUGAAGCAUUUGUAUAUCATT against MICAL2, the median seed-adjusted z-score is inactive: -0.0224.
For the sequence CGGACACUUUGUUAUUGGATT against RABGGTB, the median seed-adjusted z-score was inactive: -0.856.
On to GCCUCUACAUGAAAUCUGUTT against SCARB1, for which the median seed-adjusted z-score is inactive: 0.0715.
With GCAGCUUGUUAAAUCAACATT against AFP, the median seed-adjusted z-score was inactive: -0.144.
The figure for GCAUUACUAGGGUUGAAGATT against PNPLA8 is inactive: 0.0576; for GGUCUUCAGUGAACAGUUUTT against ZNF562 it is inactive: -0.0954; for GGUUGUUGUAUACUUGCAATT against LIPJ it is inactive: 0.295.
Consider CUCUCAGCCUUCUACCUGATT against MAN1C1, for which the median seed-adjusted z-score was inactive: -0.548.
With GAACAGGCGUGCCAAGUCUTT against MIXL1, the median seed-adjusted z-score is inactive: -0.204.
CCCUAUACCCAGGUUUUGATT against ACHE: the median seed-adjusted z-score was inactive: 0.
Regarding CGAAUUAACGGGUCAGAUUTT against CLCN1, the median seed-adjusted z-score was inactive: 0.314.
As to GGUCACCUGUUACAAGUGUTT against CPSF4, the median seed-adjusted z-score is inactive: 0.298.
As for GAAAAUGUUCGGUACUUGATT against TPTE, the median seed-adjusted z-score was inactive: 0.213.
Take GUUGAUUACCUGUACCGAATT against INPP5B: the median seed-adjusted z-score was inactive: 0.
For the sequence CCCAAGGUGUUAUAGAUGATT against STARD4, the median seed-adjusted z-score is inactive: 0.173.
For the sequence CGAUUCACCAGGAACGACATT against ZBTB7B, the median seed-adjusted z-score was inactive: -0.242.
As for GGCCGAUUAACUACCCUAATT against STAT2, the median seed-adjusted z-score is inactive: 0.
For the sequence CCUUUGAUGUCACAGCGAUTT against SLC9A6, the median seed-adjusted z-score was inactive: -0.0831.
Regarding CAGCAUAAGCAGUACUAUATT against AEBP2, the median seed-adjusted z-score was inactive: -0.212.
On to GGUUAUGUAGUAACGAGUUTT against ALS2, for which the median seed-adjusted z-score is inactive: 0.
Consider GAAUGUGCUAUGAAGCUUUTT against SPRR1B, for which the median seed-adjusted z-score was inactive: -0.721.
Regarding CAACUGCAAGAGGACUGUATT against SLC10A4, the median seed-adjusted z-score is inactive: 0.069.
The figure for GCAACUAACUCUAAUAACATT against B3GALT2 is inactive: 0.031; for GCUACCAUGAGGUCCACUATT against NSUN5 it is inactive: 0.118.
As for GAUCGAUAUCUUUACAAGATT against SLK, the figure is inactive: 0.0479; as for CCUGCCCAGAGAUACGAAATT against SMURF1, active: -1.4; as for CACACGCACUUUAAGAACATT against KCNC1, inactive: 0.73.
As to CCACGGAGCUGAUGAACUUTT against GABRD, the median seed-adjusted z-score is inactive: 0.428.
Regarding GCACAGGCCAGGUCAUCAATT against FKBP2, the median seed-adjusted z-score was inactive: -0.0466.
Regarding CCGCAUCUCCCUAGACAAATT against SERTAD3, the median seed-adjusted z-score was inactive: -0.216.
Take GAGAUUACCUAAGCAAAUUTT against TTC1: the median seed-adjusted z-score was inactive: 0.3.
As to GGAUAUUCAGAAAAGUGUUTT against INSL6, the median seed-adjusted z-score was inactive: 0.777.
Consider GAUUUGGACAAGUUAAGAATT against GSTA5, for which the median seed-adjusted z-score was inactive: 0.523.
As for UGUCAGGUUAUAUUCCUUUTT against SFXN5, the median seed-adjusted z-score was inactive: 0.
For GAGCACAUAUGUGACUCCATT against CYP2A7, the median seed-adjusted z-score was inactive: 0.342.
For AGAUCACAGUGCUCAAACATT against SYMPK, the median seed-adjusted z-score is inactive: 0.946.
On to AGAAGGAACAUGAGAAGGATT against CBX2, for which the median seed-adjusted z-score is inactive: -0.215.
Turning to CACUCUUGGGAGAAACGUATT against OSBPL2, the median seed-adjusted z-score was inactive: 0.
In the case of CAACAAUUGUCAUCGGAGUTT against RNASE3, the median seed-adjusted z-score was inactive: 0.588.
Turning to UGACGGCAACUGUUUCUAUTT against OTUB1, the median seed-adjusted z-score is inactive: 0.598.
Turning to GGACCCAAAUAAACCGGAATT against CACNA1S, the median seed-adjusted z-score was inactive: 0.842.
With CAGAGGAGCUACAAAAGUATT against MX1, the median seed-adjusted z-score was active: -1.49.
Turning to CCCUACAUGUGAACAACGATT against PRPF8, the median seed-adjusted z-score was active: -1.54.
The figure for GUCUCAUCCUUACUACCAATT against BPGM is inactive: 0.408.
